From PubChem BioAssay AID651640 (Broad Institute, 2012)
“And” between values parts separate entries of the source, which are not always exact repeats. Equal entries are not always repeated. In all, about 350,000 compounds went through this assay and about 6,000 (1.7%) were called active. This list was built around the results that the source calls inconclusive (neither active nor inactive); the mix of calls is not that of the screen. Cut-off read from the data, not from the text of the source: active = CPE inhibition above about 20% (passing the limit was not always enough); inconclusive = no clear call, values can overlap the other calls; tested in BHK-21 cells. The source holds several records for some structures; these can differ, active in one and inactive in another.

test: protection of cells from dengue 2 killing – plate reader, single concentration, primary screen (AID 651640); settings: DENV2-infected cells, cytopathic effect rescue, at 9.99 µM, hits give high values;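 note: 0% = median of neutral control wells and 100% = median of positive control wells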

Compound | CPE inhibition
Cc1nnc(NC(=O)CSc2nnc(CNC(=O)c3ccccc3F)n2C(C)C)s1 | inactive: 2.84%
CC(C)SCc1cc(N2CCCC2)nc(-c2ccccc2)n1 | active: 26.1%
Cc1noc(C)c1NC(=O)N(C)C[C@@H]1Oc2c(cccc2N(C)C)C(=O)N([C@H](C)CO)C[C@@H]1C | active: 23.8%
CN(C)C(=O)[C@H]1[C@H](CO)[C@H]2Cn3c(cccc3=O)[C@@H]1N2CC1CCCC1 | inconclusive: 24.3%
c1cc2cc(-c3c(-c4ccc5c(c4)OCO5)noc3-c3ccsc3)ccc2[nH]1 | active: 120%
C=C(C)C(=O)Nc1cccc(C2=NOC3(C2)C[C@@H](C(N)=O)N(C(=O)c2cc([N+](=O)[O-])cc([N+](=O)[O-])c2C)C3)c1 (some centres not stated) | inconclusive: 26.6%
CC1CCCN(S(=O)(=O)c2ccc(NC(=O)CN3CCCCC3)cc2)C1 (configuration not stated) | inconclusive: 30.9%
C[C@H]1CN([C@@H](C)CO)C(=O)Cc2cc(NC(=O)Nc3ccc4c(c3)OCO4)ccc2O[C@H]1CN(C)CC1CCCCC1 | inactive: -3.23%
CCCCC1=CC2=CC(=O)C(C)(OC(=O)CC)C(=O)C2=CN1CCc1c[nH]c2ccccc12 (configuration not stated) | active: 20.5%
CC(C)(C)NC(=O)COc1coc(CN2CCN(Cc3ccccc3)CC2)cc1=O | active: 57.2%
C#CCN1CC(COc2ccccc2)Oc2cccc(Oc3ccc(SC)c(C)c3)c2S1(=O)=O (configuration not stated) | inconclusive: 45.3%
Cc1ccccc1NC(=O)CCCn1nc(C)c2c(C)n(-c3ccccc3)nc2c1=O | inconclusive: 22.6%
COCCNC(=O)CCC1CCN(Cc2ccc(-c3ccccc3)cc2)CC1 | active: 48.1%
C[C@H]1CN([C@@H](C)CO)C(=O)c2cccc(NS(C)(=O)=O)c2O[C@H]1CN(C)C(=O)Nc1ccc2c(c1)OCO2 | inactive: 12.2%
Cc1ccccc1-c1ccc(C2[C@@H]3CN(C(=O)c4cnccn4)C[C@H]2N3)cc1 (some centres not stated) | active: 29.2%
COc1cc(/C=C/C(=O)c2ccc(C)cc2)ccc1OCC#N | inconclusive: 26.9%
COc1ccc(COCC23N=C4SCC(=O)N4[C@H](c4ccccc4O2)[C@H]3CO)cc1 | active: 25.7%
Cc1ccc(C)c(S(=O)(=O)N(C)Cc2cccs2)c1 | inconclusive: 35%
CO[C@H]1CN(C)C(=O)c2cc(NC(=O)c3cnccn3)ccc2OC[C@H](C)N(CC2CC2)C[C@@H]1C | active: 35%
Cc1ccc(S(=O)(=O)Nc2ccc3c(c2)CC(=O)N([C@@H](C)CO)C[C@H](C)[C@@H](CN(C)C(=O)Nc2c(C)noc2C)O3)cc1 | inactive: -4.13%
C[C@@H]1CN([C@@H](C)CO)C(=O)c2cc(C#Cc3cccc(F)c3)cnc2O[C@@H]1CN(C)C(=O)C1CCC1 | active: 86.9%
COc1ccc(C(=O)C[n+]2cc(-c3ccc(OC)cc3)n3c2CCCC3)cc1 | inactive: 5.33% and inactive: -0.0665%
COc1ccc(-c2cc(C(=O)NCCCN3CCCC3=O)c3ccccc3n2)cc1 | active: 58.2%
CC(C)C(=O)Nc1ccc2c(c1)C(=O)N(C)[C@H]1CC[C@H](CC(=O)Nc3ccccc3)O[C@@H]1CO2 | inactive: 0.318%

Compound | CPE inhibition
CC(C)(C)C(=O)c1c(N)[nH]c(C(=O)c2ccccc2)c1-c1ccc(C(F)(F)F)cc1 | inconclusive: 58.8%
C=CCON/C(CCC)=C1\C(=O)CC(C)(C)CC1=NC | inactive: -0.124%
C[C@@H]1CN([C@H](C)CO)C(=O)CCCn2nncc2CO[C@H]1CN(C)S(C)(=O)=O | inconclusive: 71.3%
CC(NC(=O)COC(=O)C1CC2CCCC(C1)C2=O)c1ccccc1 (configuration not stated) | inconclusive: 27%
CCCN(C)C[C@@H]1OCCCC[C@H](C)Oc2ccc(N(C)C)cc2C(=O)N([C@H](C)CO)C[C@@H]1C | active: 68.9%
Clc1cccc2c1CCN(Cc1nc(-c3cnccn3)no1)C2 | inactive: -2.15%
CO[C@H]1CN(C)C(=O)c2ccc(NS(=O)(=O)c3ccc(-c4ccccc4)cc3)cc2OC[C@@H](C)NC[C@@H]1C | active: 29.2%
COc1ccc(S(=O)(=O)N2CC[C@@H]3[C@H]2c2cc(C#Cc4ccccc4OC)ccc2N[C@@H]3CO)cc1 | active: 45.9%
Cc1ccc(-c2ccc3c(c2)O[C@@H](CN(C)Cc2ccncc2)[C@H](C)CN([C@@H](C)CO)S3(=O)=O)cc1 | inconclusive: 26%
C[C@H]1CN([C@@H](C)CO)C(=O)c2cc(C3=CCCCC3)cnc2O[C@@H]1CN(C)C(=O)CN1CCOCC1 | inconclusive: 20.4%
COc1cccc(-c2ccc(C3[C@@H]4CN(C(=O)C5CCOCC5)C[C@H]3N4)cc2)c1 (some centres not stated) | inconclusive: 22.3%
COc1ccc(S(=O)(=O)Nc2cccc3c2O[C@@H](CN(C)Cc2ccncc2)[C@H](C)CN([C@H](C)CO)C3=O)cc1 | inconclusive: 20.8%
OC(CN1CCN(Cc2ccccc2)CC1)c1ccc(Br)cc1 (configuration not stated) | inconclusive: 30.4%
O=C(c1ccc2c(c1)OCO2)C1CCCN(Cc2ccccc2OC(F)F)C1 (configuration not stated) | inconclusive: 85.1%
COc1ccc(NC(=O)Nc2ccc3c(c2)CC(=O)N([C@@H](C)CO)C[C@@H](C)[C@@H](CN(C)S(=O)(=O)c2ccccc2)O3)cc1 | inactive: -4.47%
CCc1noc(C)c1C(=O)OCC(=O)NC(C)c1ccccc1 (configuration not stated) | inconclusive: 28.5%
O=C(Cc1ccccn1)N1CC(=O)N2[C@H](CO)[C@@H](c3ccc(C#CC4CCCCC4)cc3)[C@@H]2C1 | active: 26.3%
Cc1cccc([C@@H]2[C@@H]3C(=O)N(Cc4ccccc4)C(=O)[C@@H]3[C@]3(Cc4ccccc4)C(=O)N(c4ccc(C(F)(F)F)cc4)C(=O)N23)c1 | active: 102%
COc1ccc(NC(=O)Nc2cccc3c2O[C@H](CN(C)C(=O)Nc2c(C)noc2C)[C@H](C)CN([C@@H](C)CO)C3=O)cc1 | inconclusive: 24.7%
C[C@@H]1CCCCO[C@@H](CN(C)CC2CCCCC2)[C@@H](C)CN([C@H](C)CO)C(=O)c2cc(NS(=O)(=O)c3ccc(Cl)cc3)ccc2O1 | active: 62.7%
CO[C@@H]1CN(C)C(=O)c2ccc(NS(=O)(=O)c3ccccc3C)cc2OC[C@H](C)NC[C@@H]1C | inactive: -0.698%
O=C(NC[C@H]1CC[C@H]2[C@H](CN2Cc2nccs2)O1)C1CCC1 | inactive: 10.1%
COc1cccc(-c2cn(CC[C@H]3CC[C@@H](NC(=O)CN(C)C)[C@H](CO)O3)nn2)c1 | inconclusive: 31.6%
COc1ccc(C(=O)Cn2c(NCCCO)nc3ccccc32)cc1 | inconclusive: 60.1%

Compound | CPE inhibition
O=C(NCC[C@@H]1CC[C@@H](NC(=O)C2CCCC2)[C@@H](CO)O1)c1cc(Cl)cc(Cl)c1 | active: 21%
CCCC(=O)N1CCC1(C)C(=O)Nc1ccc(OC(F)F)cc1 (configuration not stated) | inconclusive: 22.5%
CC(=O)Nc1ccc(S(=O)(=O)N2CCC(NC(=O)C(Cc3ccccc3F)NC(C)=O)CC2)cc1 (configuration not stated) | inconclusive: 39.5%
CN1C(=O)c2cc(NC(=O)C3CCCC3)ccc2OC[C@@H]2O[C@@H](CC(=O)NCc3ccccc3F)CC[C@H]21 | inconclusive: 25.8%
COc1cc(C2Nc3cc(C)c(C)cc3NC3=C2C(=O)CC(C)(C)C3)ccc1OC(C)=O (configuration not stated) | inconclusive: 32.6%
Nc1ncc([N+](=O)[O-])c(N2CCCCCC2)n1 | inactive: 6.84%
CCc1sc(NC(=O)c2cc3ccccc3oc2=O)nc1-c1cccs1 | inconclusive: 33.1%
CC(C)CNC(=O)C1(C)CCCCCN1C(=O)c1csnn1 (configuration not stated) | active: 113%
O=C(NCCCN1CCOCC1)[C@H]1N[C@H]2c3ccc(C4=CCCC4)c(=O)n3C[C@H]2[C@@H]1CO | inactive: -8.3%
OC[C@@H]1[C@H]2c3ccccc3NC[C@H]2N1CC1CCCCC1 | inactive: 4.91%
CC1(C)CC=CC(COC(=O)c2ccccc2C(=O)O)C1 (configuration not stated) | inconclusive: 58.9%
CCS(=O)(=O)Nc1ccc2c(c1)C(=O)N(C)C[C@@H](OC)[C@@H](C)CN(C(=O)C1CC1)[C@@H](C)CO2 | inactive: 0.282%
CO[C@@H](CN(C)S(=O)(=O)c1ccc(Cl)cc1)[C@H](C)CN(C(=O)Nc1ccccc1F)[C@H](C)CO | inactive: 0.674%
O=C(O)c1cccc(C(=O)O)c1Br | inconclusive: 27.6%
CCCNC(=O)Nc1ccc2c(c1)C(=O)N(C)[C@H]1CC[C@H](CC(=O)NC)O[C@H]1CO2 | inconclusive: 33.7%
O=C(c1cccc(F)c1)N1CC2(C1)[C@@H](c1ccccc1)[C@@H](CO)N2Cc1ccccn1 | inactive: 4.48%
COCCNS(=O)(=O)c1cccc2cccnc12 | inconclusive: 34.7%
CC1CC1C(=O)OCC(=O)NC(=O)c1ccccc1 (configuration not stated) | inactive: -7.34%
Cc1c2cnn(CC(=O)Nc3c(F)c(F)cc(F)c3F)c(=O)c2c(C)n1Cc1ccc(F)cc1 | inconclusive: 24.3%
C[C@H](CO)N1C[C@H](C)[C@H](CN(C)C(=O)Cc2ccncc2)Oc2ncc(C#CC3(O)CCCC3)cc2C1=O | inactive: -1.26%
Cc1ccc(-c2cnc3c(c2)C(=O)N([C@H](C)CO)C[C@@H](C)[C@H](CN(C)C)O3)cc1 | inconclusive: 20.1%
CCCCN(C(=O)c1oc2ccc(OCC)cc2c1C)c1c(N)n(CCCC)c(=O)[nH]c1=O | inconclusive: 26.6%
C/C(=N\NC(=O)C1CCCC1)c1ccc(Cl)cc1Cl | inconclusive: 28.1%
Cc1noc(C)c1NC(=O)Nc1ccc2c(c1)C(=O)N([C@H](C)CO)C[C@@H](C)[C@H](CN(C)S(=O)(=O)c1ccc(F)cc1)O2 | active: 86.4%

Rewritten as a markdown table: entries from further up.

| Compound | CPE inhibition |
| --- | --- |
| O=C(NCC[C@@H]1CC[C@@H](NC(=O)C2CCCC2)[C@@H](CO)O1)c1cc(Cl)cc(Cl)c1 | active: 21% |
| OC[C@@H]1[C@H]2c3ccccc3NC[C@H]2N1CC1CCCCC1 | inactive: 4.91% |
| CC1CC1C(=O)OCC(=O)NC(=O)c1ccccc1 (configuration not stated) | inactive: -7.34% |
| Cc1c2cnn(CC(=O)Nc3c(F)c(F)cc(F)c3F)c(=O)c2c(C)n1Cc1ccc(F)cc1 | inconclusive: 24.3% |
| Cc1noc(C)c1NC(=O)Nc1ccc2c(c1)C(=O)N([C@H](C)CO)C[C@@H](C)[C@H](CN(C)S(=O)(=O)c1ccc(F)cc1)O2 | active: 86.4% |
